Our source for the step yield and cyclisation yield values is patent US11174291B2 (Arizona Board of Regents on behalf of Arizona State …, priority 2015, dated 2021).

One data set can be described thus: general procedure: solution-phase peptide synthesis; DCC/DMAP (ester couplings); HBTU/TEA (fragment couplings); PyBroP/TEA (cyclisati). The conditions noted are these: coupling step.
The substance Fmoc-[Val-D-Hcha-D-Val-Lac]3-OBn registered a step yield of 70%.
On to “Fmoc-Thr(tBu)-D-Hica-D-Val-Lac-[Val-D-Hica-D-Val-Lac]2-OBn”, for which the step yield is listed as 74%.
Same read-out and setting: in the case of Fmoc-Val-D-Hica-D-Val-Lac-OBn it was 77%.
In the case of Fmoc-[Val-D-Hcha-D-Val-Lac]2-OBn, the step yield was 76%.
The same measure, in the same setting: the value for Fmoc-Tyr(tBu)-D-Hcha-D-Val-Lac-OBn was 90%; that for “Fmoc-Thr(tBu)-D-Hcha-D-Val-Lac-[Val-D-Hcha-D-Val-Lac]2-OBn” was 64%.
As to “Fmoc-Tyr(tBu)-D-Hica-D-Val-Lac-[Val-D-Hica-D-Val-Lac]2-OBn”, the step yield worked out at 81%.
On the same count and under the same terms, the value for Fmoc-Thr(tBu)-D-Hcha-D-Val-Lac-OBn was 79%; that for “Fmoc-Tyr(tBu)-D-Hcha-D-Val-Lac-[Val-D-Hica-D-Val-Lac]2-OBn” was 71%.
Turning to “Fmoc-Thr(tBu)-D-Hcha-D-Val-Lac-[Val-D-Hica-D-Val-Lac]2-OBn”, the step yield was determined as 74%.
Still for that read-out and setting: the value for Fmoc-Tyr(tBu)-D-Hica-D-Val-Lac-OBn was 94%; that for Fmoc-Thr(tBu)-D-Hica-D-Val-Lac-OBn was 83%; that for Fmoc-[Val-D-Hica-D-Val-Lac]2-OBn was 83%.
Same read-out and setting: the value for “Fmoc-Tyr(tBu)-D-Hcha-D-Val-Lac-[Val-D-Hcha-D-Val-Lac]2-OBn” was 74%; that for Fmoc-Val-D-Hcha-D-Val-Lac-OBn was 82%; that for Fmoc-[Val-D-Hica-D-Val-Lac]3-OBn was 62%.

Staying with this data set, now noted: cyclisation step.
Substance “Cyclo-{Tyr(tBu)-D-Hcha-D-Val-Lac-[Val-D-Hica-D-Val-Lac]2}” gave a cyclisation yield of 22%.
The same measure, in the same setting: the value for “Cyclo-{Thr(tBu)-D-Hcha-D-Val-Lac-[Val-D-Hica-D-Val-Lac]2}” was 48%.

The same data set, now with this note: cyclisation step, on linear precursor 6a.
Take Cyclo-[Val-D-Hica-D-Val-Lac]3: the cyclisation yield is recorded as 28%.

Staying with this data set, now noted: cyclisation step, on linear precursor 6b.
The substance “Cyclo-{Thr(tBu)-D-Hica-D-Val-Lac-[Val-D-Hica-D-Val-Lac]2}” yielded a cyclisation yield of 33%.

The same data set, now with this note: cyclisation step, on linear precursor 6c.
For the substance “Cyclo-{Tyr(tBu)-D-Hica-D-Val-Lac-[Val-D-Hica-D-Val-Lac]2}”, the cyclisation yield is 11%.

The data set is the same for the next values; noted with them: cyclisation step, on linear precursor 13a.
Cyclo-[Val-D-Hcha-D-Val-Lac]3 came in with a cyclisation yield of 23%.

Still in this data set, the particulars now being: cyclisation step, on linear precursor 13b.
The substance “Cyclo-{Thr(tBu)-D-Hcha-D-Val-Lac-[Val-D-Hcha-D-Val-Lac]2}” registered a cyclisation yield of 29%.

Staying with this data set, now noted: cyclisation step, on linear precursor 13c.
Substance “Cyclo-{Tyr(tBu)-D-Hcha-D-Val-Lac-[Val-D-Hcha-D-Val-Lac]2}” registered a cyclisation yield of 34%.

The data set is the same for the next values; noted with them: late stage modification step.
As for “Cyclo-{Thr-D-Hica-D-Val-Lac-[Val-D-Hica-D-Val-Lac]2}”, the step yield is reported as 94%.
With “Cyclo-{Tyr-D-Hica-D-Val-Lac-[Val-D-Hica-D-Val-Lac]2}”, the step yield is on record as 75%.
On the same count and under the same terms, the value for “Cyclo-{Thr-D-Hcha-D-Val-Lac-[Val-D-Hcha-D-Val-Lac]2}” was 91%; that for “Cyclo-{Tyr-D-Hcha-D-Val-Lac-[Val-D-Hica-D-Val-Lac]2}” was 87%; that for “Cyclo-{Tyr-D-Hcha-D-Val-Lac-[Val-D-Hcha-D-Val-Lac]2}” was 96%.
Same read-out and setting: the value for “Cyclo-{Thr-D-Hcha-D-Val-Lac-[Val-D-Hica-D-Val-Lac]2}” was 92%.
